Data source: PubChem BioAssay AID493246 (Drosophila RNAi Screening Center, 2011)
Purpose: 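Genes fly cells need to grow and stay alive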 (primary screen). Cells: Drosophila Kc and S2R+ cells. Knock-down reagent: long dsRNA against Drosophila genes. Read-out: 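Raw, unnormalised count of remaining cells in each well; per-plate z-scores of cell number underlie the calls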. Direction: Kc cell number and S2R+ cell number: higher = more cells remaining. Rule for the call: 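Counted as a hit if cell number falls by a z-score of at least 3 within its plate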.
In all, the deposit lists about 21,000 reagents; this is a random part of those that have a named target and a result. Of all reagents, 429 (2%) are marked active. 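Values are raw and not normalised between plates; calls rest on per-plate z-scores that were not deposited.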 Unmarked entries are inactive. The numbers tell different reagents against one gene apart. Names joined by + are all predicted targets of the reagent. No sequences are given here. The record does not give: the amount of reagent, the time to read-out.

CG42375 + CG9288: Kc cell number, rep 1 = 1.85e6; Kc cell number, rep 2 = 1.65e6; S2R+ cell number, rep 1 = 1.42e6; S2R+ cell number, rep 2 = 1.49e6
Hsdl2: Kc cell number, rep 1 = 5.29e5; S2R+ cell number, rep 1 = 8.01e5
CG4456 + Hsp22 #1: Kc cell number, rep 1 = 1.44e6; Kc cell number, rep 2 = 1.48e6; S2R+ cell number, rep 1 = 1.20e6; S2R+ cell number, rep 2 = 1.30e6
CG4456 + Hsp22 #2: Kc cell number, rep 1 = 1.53e6; Kc cell number, rep 2 = 1.45e6; S2R+ cell number, rep 1 = 1.23e6; S2R+ cell number, rep 2 = 1.21e6
mRpL35: Kc cell number, rep 1 = 1.14e6; Kc cell number, rep 2 = 1.21e6; S2R+ cell number, rep 1 = 8.95e5; S2R+ cell number, rep 2 = 9.72e5
RhoGAP15B #1: Kc cell number, rep 1 = 1.38e6; Kc cell number, rep 2 = 1.44e6; S2R+ cell number, rep 1 = 1.06e6; S2R+ cell number, rep 2 = 1.13e6
RhoGAP15B #2: Kc cell number, rep 1 = 1.37e6; Kc cell number, rep 2 = 1.40e6; S2R+ cell number, rep 1 = 1.09e6; S2R+ cell number, rep 2 = 1.18e6
CCT2: Kc cell number, rep 1 = 4.90e5; S2R+ cell number, rep 1 = 8.47e5
CG7369: Kc cell number, rep 1 = 1.20e6; Kc cell number, rep 2 = 1.39e6; S2R+ cell number, rep 1 = 1.00e6; S2R+ cell number, rep 2 = 1.06e6
rl #1: Kc cell number, rep 1 = 1.10e6; Kc cell number, rep 2 = 1.06e6; S2R+ cell number, rep 1 = 1.03e6; S2R+ cell number, rep 2 = 1.26e6
rl #2: Kc cell number, rep 1 = 1.41e6; Kc cell number, rep 2 = 1.44e6; S2R+ cell number, rep 1 = 1.07e6; S2R+ cell number, rep 2 = 1.17e6
CG4294: Kc cell number, rep 1 = 1.26e6; Kc cell number, rep 2 = 1.31e6; S2R+ cell number, rep 1 = 9.82e5; S2R+ cell number, rep 2 = 1.06e6

Part of the list above, reduced to “Kc cell number, rep 2”.
rl #1: 1.06e6
rl #2: 1.44e6
